# Assay results from the odorant receptor screen of Mainland et al. (2015).
# Chains of the proteins cited; added tags and fusions are not shown. Chains listed by the source or under a name are the forms on record and can include a tag or linker.
# OR11H13, as listed by the source: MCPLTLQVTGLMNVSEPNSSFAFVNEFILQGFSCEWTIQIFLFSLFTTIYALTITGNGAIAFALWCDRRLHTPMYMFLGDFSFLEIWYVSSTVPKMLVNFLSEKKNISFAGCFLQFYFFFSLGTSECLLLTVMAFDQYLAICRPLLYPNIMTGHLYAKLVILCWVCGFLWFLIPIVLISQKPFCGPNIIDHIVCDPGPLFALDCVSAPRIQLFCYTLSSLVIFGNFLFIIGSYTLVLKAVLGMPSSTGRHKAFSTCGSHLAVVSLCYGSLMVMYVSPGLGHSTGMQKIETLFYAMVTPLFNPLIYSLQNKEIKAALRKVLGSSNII
# “And” between values parts separate entries of the source, which are not always exact repeats. Identical values can stand only once. Some of the results follow. Each value is one well over the wells without odorant, computed here; the data are noisy.
# Tested on: OR11H13 clone 1435
# Assay: odorant receptor activation (CRE luciferase / Renilla) (fold of no-odor wells); higher = more activation
# Conditions: 100 µM
row,SMILES,odorant receptor activation
1,CCCCCC(=O)O [caproic acid],0.152
2,C=C(C)C1CC=CCC1 (stereo unspecified) [r-limonene],1.43 and 0.996
3,"CC1CCC(C(C)C)C(O)C1 (single isomer, unassigned; (+)) [(+)-menthol]",1.88
4,O=C1CCCCC1 [Cyclohexanone],0.873
5,CC(=O)c1ccccc1 [acetophenone],1.03
6,COC(=O)c1ccccc1 [methyl benzoate],0.877
7,O=CCc1ccccc1 [phenyl acetaldehyde],1.49
8,C=CC(C)(O)CCC=C(C)C (stereo unspecified) [linalool],1.2
9,CCCCO [1-butanol],2.1
10,CC/C=C\CCO [cis-3-hexen-1-ol],0.213
11,CC1=CCC(C(C)(C)O)CC1 (stereo unspecified) [terpineol],1.15
12,CC(C)CCC(=O)O [4-methylvaleric acid],1.78
13,CC1COCc2cc3c(cc21)C(C)(C)C(C)C3(C)C (stereo unspecified) [galaxolide],2.14
14,"CC1CCC(C(C)C)C(O)C1 (single isomer, unassigned; (-)) [(-)-menthol]",2.09
15,CC(C)(C)c1ccc(CCC=O)cc1 [bourgeonal],0.125
16,CCCCCCCCOC(C)=O [octyl acetate],1.07
17,CC1=NC(C)SC1C (stereo unspecified),0.977
18,CC12C=CCC1C1CCC3CC(=O)CCC3(C)C1CC2 (stereo unspecified) [androstenone],1.42
19,C=C(C)C1CC=C(C)C(=O)C1 (stereo unspecified) [r-carvone],1.44
20,CC12C=CCC1C1CCC3=CC(=O)CCC3(C)C1CC2 (stereo unspecified) [androstadienone],0.86
21,CCCCCCCOC(C)=O [heptyl acetate],0.774
22,CC(C)C=O [isobutyraldehyde],0.842
23,CC=Cc1ccc(O)c(OC)c1 [isoeugenol],1.33
24,CCCC(=O)O [butyric acid],0.191
25,CCCCCC(C)=O [2-heptanone],0.914
26,CCCCCCC=O [heptaldehyde],0.906 and 0.831
27,CCCCCCCC=CC=O [2-decenal],2.42

# Tested on: OR11H4 clone 1263
# Assay: as above
# Conditions: 100 µM
row,SMILES,odorant receptor activation
1,CCCCCC(=O)O [caproic acid],0.676
2,C=C(C)C1CC=CCC1 (stereo unspecified) [r-limonene],0.813 and 0.686
3,"CC1CCC(C(C)C)C(O)C1 (single isomer, unassigned; (+)) [(+)-menthol]",0.783
4,O=C1CCCCC1 [Cyclohexanone],0.742
5,CC(=O)c1ccccc1 [acetophenone],1.42
6,COC(=O)c1ccccc1 [methyl benzoate],0.935
7,O=CCc1ccccc1 [phenyl acetaldehyde],1.12
8,C=CC(C)(O)CCC=C(C)C (stereo unspecified) [linalool],0.896
9,CCCCO [1-butanol],0.96
10,CC/C=C\CCO [cis-3-hexen-1-ol],0.807
11,CC1=CCC(C(C)(C)O)CC1 (stereo unspecified) [terpineol],0.958
12,CC(C)CCC(=O)O [4-methylvaleric acid],1.25
13,CC1COCc2cc3c(cc21)C(C)(C)C(C)C3(C)C (stereo unspecified) [galaxolide],1.72 and 1.34
14,"CC1CCC(C(C)C)C(O)C1 (single isomer, unassigned; (-)) [(-)-menthol]",0.643
15,CC(C)(C)c1ccc(CCC=O)cc1 [bourgeonal],0.702
16,CCCCCCCCOC(C)=O [octyl acetate],1.15
17,CC1=NC(C)SC1C (stereo unspecified),1.21
18,CC12C=CCC1C1CCC3CC(=O)CCC3(C)C1CC2 (stereo unspecified) [androstenone],1.26
19,C=C(C)C1CC=C(C)C(=O)C1 (stereo unspecified) [r-carvone],0.74
20,CC12C=CCC1C1CCC3=CC(=O)CCC3(C)C1CC2 (stereo unspecified) [androstadienone],1.15 and 1.17
21,CCCCCCCOC(C)=O [heptyl acetate],0.956 and 1.09
22,CC(C)C=O [isobutyraldehyde],0.79 and 1.25
23,CC=Cc1ccc(O)c(OC)c1 [isoeugenol],1.18 and 1.12
24,CCCC(=O)O [butyric acid],0.913
25,CCCCCC(C)=O [2-heptanone],1.41
26,CCCCCCC=O [heptaldehyde],0.681 and 0.875 and 1.52
27,CCCCCCCC=CC=O [2-decenal],1.55

# Tested on: OR11H4 clone 1423
# Assay: as above
# Conditions: 100 µM
row,SMILES,odorant receptor activation
1,CCCCCC(=O)O [caproic acid],0.132
2,C=C(C)C1CC=CCC1 (stereo unspecified) [r-limonene],1.17 and 0.803
3,"CC1CCC(C(C)C)C(O)C1 (single isomer, unassigned; (+)) [(+)-menthol]",0.933
4,O=C1CCCCC1 [Cyclohexanone],0.852
5,CC(=O)c1ccccc1 [acetophenone],0.923
6,COC(=O)c1ccccc1 [methyl benzoate],0.68
7,O=CCc1ccccc1 [phenyl acetaldehyde],1.4
8,C=CC(C)(O)CCC=C(C)C (stereo unspecified) [linalool],0.853
9,CCCCO [1-butanol],0.833
10,CC/C=C\CCO [cis-3-hexen-1-ol],0.161
11,CC1=CCC(C(C)(C)O)CC1 (stereo unspecified) [terpineol],0.949
12,CC(C)CCC(=O)O [4-methylvaleric acid],1.49
13,CC1COCc2cc3c(cc21)C(C)(C)C(C)C3(C)C (stereo unspecified) [galaxolide],4.36
14,"CC1CCC(C(C)C)C(O)C1 (single isomer, unassigned; (-)) [(-)-menthol]",0.676
15,CC(C)(C)c1ccc(CCC=O)cc1 [bourgeonal],0.157
16,CCCCCCCCOC(C)=O [octyl acetate],0.972
17,CC1=NC(C)SC1C (stereo unspecified),1.05
18,CC12C=CCC1C1CCC3CC(=O)CCC3(C)C1CC2 (stereo unspecified) [androstenone],0.893
19,C=C(C)C1CC=C(C)C(=O)C1 (stereo unspecified) [r-carvone],0.991
20,CC12C=CCC1C1CCC3=CC(=O)CCC3(C)C1CC2 (stereo unspecified) [androstadienone],1.02
21,CCCCCCCOC(C)=O [heptyl acetate],1.3
22,CC(C)C=O [isobutyraldehyde],0.925
23,CC=Cc1ccc(O)c(OC)c1 [isoeugenol],1.82
24,CCCC(=O)O [butyric acid],0.139
25,CCCCCC(C)=O [2-heptanone],0.724
26,CCCCCCC=O [heptaldehyde],0.997 and 0.831
27,CCCCCCCC=CC=O [2-decenal],1.03
